Measurements as given in the supplement of paper PMC7666118.
This is one part of the list.

Chains of the proteins cited; added tags and fusions are not shown. Lines headed by an entry give the natural chain unless they say otherwise; changes in a name come on top.
UniProt Q9NSD9: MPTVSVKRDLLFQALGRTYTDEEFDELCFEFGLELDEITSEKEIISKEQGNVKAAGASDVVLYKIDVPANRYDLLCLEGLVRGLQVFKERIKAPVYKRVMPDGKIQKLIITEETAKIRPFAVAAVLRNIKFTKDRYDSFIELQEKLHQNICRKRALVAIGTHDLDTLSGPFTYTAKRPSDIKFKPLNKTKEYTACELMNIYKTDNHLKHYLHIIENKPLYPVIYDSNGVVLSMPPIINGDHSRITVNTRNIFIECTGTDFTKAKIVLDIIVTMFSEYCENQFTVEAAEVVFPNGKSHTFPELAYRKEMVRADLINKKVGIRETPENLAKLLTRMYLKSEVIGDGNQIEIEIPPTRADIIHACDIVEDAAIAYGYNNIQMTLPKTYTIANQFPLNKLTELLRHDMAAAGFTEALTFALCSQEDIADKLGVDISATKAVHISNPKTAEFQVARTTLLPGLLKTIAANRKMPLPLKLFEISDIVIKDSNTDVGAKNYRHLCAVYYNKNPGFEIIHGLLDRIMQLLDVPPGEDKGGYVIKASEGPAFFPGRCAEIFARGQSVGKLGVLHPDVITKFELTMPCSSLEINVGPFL
UniProt P27539: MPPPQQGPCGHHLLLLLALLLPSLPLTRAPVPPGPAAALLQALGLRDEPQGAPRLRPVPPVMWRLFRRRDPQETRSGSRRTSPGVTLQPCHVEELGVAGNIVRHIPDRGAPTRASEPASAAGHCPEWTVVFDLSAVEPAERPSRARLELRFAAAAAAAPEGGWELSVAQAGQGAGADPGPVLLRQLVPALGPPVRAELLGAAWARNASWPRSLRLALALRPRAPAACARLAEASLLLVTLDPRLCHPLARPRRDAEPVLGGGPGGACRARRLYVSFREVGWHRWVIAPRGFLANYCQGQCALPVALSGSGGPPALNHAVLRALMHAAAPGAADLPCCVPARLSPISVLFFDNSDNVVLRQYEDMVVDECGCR
UniProt P55789: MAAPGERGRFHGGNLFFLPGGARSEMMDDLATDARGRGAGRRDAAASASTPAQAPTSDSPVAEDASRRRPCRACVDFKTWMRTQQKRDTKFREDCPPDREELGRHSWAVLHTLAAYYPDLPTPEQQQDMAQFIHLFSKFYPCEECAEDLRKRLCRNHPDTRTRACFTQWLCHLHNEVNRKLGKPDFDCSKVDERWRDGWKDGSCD
UniProt P51114, whole entry: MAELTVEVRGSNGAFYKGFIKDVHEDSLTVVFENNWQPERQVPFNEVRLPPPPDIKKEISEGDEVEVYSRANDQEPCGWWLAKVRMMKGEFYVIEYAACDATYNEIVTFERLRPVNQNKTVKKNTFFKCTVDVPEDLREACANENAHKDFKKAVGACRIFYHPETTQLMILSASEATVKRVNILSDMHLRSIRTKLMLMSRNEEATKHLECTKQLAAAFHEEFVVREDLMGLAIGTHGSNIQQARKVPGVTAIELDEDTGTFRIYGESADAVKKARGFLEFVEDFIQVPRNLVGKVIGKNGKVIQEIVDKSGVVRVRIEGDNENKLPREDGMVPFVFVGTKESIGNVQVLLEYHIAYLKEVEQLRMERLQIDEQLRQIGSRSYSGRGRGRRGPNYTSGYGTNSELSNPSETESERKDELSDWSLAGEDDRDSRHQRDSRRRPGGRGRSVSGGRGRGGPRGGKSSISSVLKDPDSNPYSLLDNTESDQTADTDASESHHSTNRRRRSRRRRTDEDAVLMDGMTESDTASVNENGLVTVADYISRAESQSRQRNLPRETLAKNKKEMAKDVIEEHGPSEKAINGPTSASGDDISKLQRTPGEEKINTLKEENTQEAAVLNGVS
UniProt Q53GS7: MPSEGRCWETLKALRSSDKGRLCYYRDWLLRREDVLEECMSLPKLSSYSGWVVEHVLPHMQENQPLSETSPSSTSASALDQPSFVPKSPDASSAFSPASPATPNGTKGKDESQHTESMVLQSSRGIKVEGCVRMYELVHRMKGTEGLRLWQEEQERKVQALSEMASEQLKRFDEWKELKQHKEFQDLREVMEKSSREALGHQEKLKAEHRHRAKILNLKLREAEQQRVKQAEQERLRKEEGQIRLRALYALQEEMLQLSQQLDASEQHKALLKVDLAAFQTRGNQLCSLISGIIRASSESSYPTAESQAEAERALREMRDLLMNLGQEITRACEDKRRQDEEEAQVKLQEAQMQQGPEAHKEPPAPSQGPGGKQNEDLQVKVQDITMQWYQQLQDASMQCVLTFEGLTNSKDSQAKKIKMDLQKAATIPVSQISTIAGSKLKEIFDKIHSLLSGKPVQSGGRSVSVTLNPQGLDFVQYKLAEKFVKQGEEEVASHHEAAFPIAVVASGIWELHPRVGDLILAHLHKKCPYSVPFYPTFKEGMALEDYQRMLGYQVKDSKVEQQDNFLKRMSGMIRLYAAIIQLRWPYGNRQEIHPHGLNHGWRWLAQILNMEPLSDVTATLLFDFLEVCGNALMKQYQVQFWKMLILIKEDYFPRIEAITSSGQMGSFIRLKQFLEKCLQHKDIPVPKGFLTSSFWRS
UniProt P15408: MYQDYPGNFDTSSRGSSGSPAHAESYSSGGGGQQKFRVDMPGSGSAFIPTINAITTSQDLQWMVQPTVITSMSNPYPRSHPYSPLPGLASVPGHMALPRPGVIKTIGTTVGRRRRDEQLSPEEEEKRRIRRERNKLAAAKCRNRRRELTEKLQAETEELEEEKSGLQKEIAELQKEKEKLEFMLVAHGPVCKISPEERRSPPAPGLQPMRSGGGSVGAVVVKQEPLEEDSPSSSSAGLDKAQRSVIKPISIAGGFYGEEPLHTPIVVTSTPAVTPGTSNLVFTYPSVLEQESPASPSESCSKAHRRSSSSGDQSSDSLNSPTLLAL
UniProt P06241, whole entry, looked up: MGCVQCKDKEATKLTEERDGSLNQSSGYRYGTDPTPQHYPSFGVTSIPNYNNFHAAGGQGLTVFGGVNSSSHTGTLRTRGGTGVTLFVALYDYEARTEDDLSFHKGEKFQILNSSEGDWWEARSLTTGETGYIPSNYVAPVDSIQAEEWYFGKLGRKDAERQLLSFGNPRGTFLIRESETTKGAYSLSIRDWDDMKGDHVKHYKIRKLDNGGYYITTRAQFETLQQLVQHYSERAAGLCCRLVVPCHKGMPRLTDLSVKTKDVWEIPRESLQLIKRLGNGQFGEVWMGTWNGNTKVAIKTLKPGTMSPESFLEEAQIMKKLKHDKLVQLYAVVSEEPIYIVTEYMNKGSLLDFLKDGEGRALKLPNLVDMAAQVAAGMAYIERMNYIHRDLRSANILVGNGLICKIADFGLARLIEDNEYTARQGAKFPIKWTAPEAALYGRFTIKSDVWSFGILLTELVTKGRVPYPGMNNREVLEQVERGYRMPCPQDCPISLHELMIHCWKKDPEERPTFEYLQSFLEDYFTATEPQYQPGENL
UniProt O15117, whole entry: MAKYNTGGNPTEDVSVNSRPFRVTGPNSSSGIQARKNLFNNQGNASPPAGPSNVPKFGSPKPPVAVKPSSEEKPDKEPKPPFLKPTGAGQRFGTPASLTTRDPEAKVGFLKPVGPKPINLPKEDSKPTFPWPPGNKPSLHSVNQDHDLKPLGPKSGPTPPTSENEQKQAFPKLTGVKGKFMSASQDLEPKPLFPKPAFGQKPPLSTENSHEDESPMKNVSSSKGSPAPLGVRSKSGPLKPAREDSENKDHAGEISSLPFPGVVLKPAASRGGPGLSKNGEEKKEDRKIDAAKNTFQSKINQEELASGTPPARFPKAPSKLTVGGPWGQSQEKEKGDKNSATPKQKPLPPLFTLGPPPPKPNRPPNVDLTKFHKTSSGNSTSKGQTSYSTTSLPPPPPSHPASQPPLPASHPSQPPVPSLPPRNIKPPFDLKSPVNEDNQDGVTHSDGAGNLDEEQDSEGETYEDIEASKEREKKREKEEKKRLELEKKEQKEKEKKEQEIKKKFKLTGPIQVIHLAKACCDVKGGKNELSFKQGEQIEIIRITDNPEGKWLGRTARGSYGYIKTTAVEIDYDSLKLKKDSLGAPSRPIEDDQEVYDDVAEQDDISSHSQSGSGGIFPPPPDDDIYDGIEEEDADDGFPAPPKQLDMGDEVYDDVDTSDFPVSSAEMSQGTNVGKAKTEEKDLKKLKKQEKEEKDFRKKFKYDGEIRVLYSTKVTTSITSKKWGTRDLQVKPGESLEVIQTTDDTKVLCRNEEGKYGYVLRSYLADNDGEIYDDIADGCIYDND
UniProt Q8WVX9: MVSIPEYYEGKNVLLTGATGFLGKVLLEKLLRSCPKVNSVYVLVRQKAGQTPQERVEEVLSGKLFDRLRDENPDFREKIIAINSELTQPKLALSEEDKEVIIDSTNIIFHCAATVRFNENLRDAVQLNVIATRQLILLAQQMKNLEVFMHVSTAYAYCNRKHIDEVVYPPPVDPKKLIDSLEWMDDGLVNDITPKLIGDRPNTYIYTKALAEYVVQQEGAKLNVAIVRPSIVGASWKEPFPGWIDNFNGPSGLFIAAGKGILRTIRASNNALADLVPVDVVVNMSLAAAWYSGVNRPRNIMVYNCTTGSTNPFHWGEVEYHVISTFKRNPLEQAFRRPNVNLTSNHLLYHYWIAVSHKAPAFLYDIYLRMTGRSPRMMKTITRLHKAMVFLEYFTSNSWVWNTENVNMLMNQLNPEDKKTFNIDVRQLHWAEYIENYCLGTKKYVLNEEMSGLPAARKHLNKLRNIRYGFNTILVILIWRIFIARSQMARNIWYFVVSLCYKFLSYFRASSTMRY
UniProt Q9UKT4: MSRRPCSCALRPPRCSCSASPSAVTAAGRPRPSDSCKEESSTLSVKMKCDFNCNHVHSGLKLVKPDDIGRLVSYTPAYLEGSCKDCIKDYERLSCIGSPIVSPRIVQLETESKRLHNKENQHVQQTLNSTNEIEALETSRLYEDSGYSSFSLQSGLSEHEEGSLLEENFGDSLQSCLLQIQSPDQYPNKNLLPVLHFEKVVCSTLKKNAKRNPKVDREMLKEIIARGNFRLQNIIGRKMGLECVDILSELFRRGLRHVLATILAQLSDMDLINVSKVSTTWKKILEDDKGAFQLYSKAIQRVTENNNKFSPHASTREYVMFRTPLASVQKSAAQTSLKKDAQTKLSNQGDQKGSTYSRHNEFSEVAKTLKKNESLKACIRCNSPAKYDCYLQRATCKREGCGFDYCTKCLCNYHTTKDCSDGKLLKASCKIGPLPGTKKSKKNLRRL
UniProt Q9H2C0: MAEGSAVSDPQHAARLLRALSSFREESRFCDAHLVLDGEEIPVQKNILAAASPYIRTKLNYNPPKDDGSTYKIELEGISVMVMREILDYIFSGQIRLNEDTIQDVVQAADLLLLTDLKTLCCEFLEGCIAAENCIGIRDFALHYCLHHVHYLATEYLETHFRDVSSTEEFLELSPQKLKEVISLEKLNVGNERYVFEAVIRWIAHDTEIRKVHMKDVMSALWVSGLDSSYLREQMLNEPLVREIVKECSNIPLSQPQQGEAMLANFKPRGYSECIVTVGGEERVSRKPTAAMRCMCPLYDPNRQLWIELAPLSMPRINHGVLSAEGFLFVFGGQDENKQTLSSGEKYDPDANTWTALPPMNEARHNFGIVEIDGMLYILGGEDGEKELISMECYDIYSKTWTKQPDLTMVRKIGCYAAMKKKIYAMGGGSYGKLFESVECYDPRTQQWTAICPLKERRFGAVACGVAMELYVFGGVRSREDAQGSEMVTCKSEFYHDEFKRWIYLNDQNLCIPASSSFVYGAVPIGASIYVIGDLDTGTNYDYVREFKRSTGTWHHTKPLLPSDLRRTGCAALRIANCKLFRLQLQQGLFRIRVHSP
UniProt Q53R41: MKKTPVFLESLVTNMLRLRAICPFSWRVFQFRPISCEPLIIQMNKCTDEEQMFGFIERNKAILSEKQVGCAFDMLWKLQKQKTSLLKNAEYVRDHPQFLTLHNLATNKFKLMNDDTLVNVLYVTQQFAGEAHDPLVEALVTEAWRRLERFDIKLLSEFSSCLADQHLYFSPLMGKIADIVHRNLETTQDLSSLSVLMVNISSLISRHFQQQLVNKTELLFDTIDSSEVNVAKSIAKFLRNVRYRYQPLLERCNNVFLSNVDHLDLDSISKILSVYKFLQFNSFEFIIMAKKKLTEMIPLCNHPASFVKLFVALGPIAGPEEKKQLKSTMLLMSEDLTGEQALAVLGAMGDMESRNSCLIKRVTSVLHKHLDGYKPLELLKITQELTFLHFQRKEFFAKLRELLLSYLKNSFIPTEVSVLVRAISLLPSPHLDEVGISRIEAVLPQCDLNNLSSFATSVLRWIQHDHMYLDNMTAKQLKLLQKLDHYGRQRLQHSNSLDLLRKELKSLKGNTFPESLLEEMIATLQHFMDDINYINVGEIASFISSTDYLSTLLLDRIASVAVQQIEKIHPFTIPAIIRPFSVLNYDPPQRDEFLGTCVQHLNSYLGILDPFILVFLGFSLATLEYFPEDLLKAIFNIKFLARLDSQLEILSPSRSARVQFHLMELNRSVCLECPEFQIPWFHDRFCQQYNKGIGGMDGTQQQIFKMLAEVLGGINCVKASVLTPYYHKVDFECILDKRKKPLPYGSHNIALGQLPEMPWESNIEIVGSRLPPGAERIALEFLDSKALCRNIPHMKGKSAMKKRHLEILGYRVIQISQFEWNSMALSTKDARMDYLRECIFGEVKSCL

These targets were tested with COc1ccc(Cn2ccc3cc(C)c(C(=O)NO)cc32)cc1 (assay: dose-dependent thermal stabilisation call (2D-TPP, DLPTP, 10% FDR) (binary (1 = stabilised)); higher = stabilised by the compound). Conditions: system: HL-60 intact cells; concentration range 0.04-10 µM.
Description: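 2D thermal proteome profiling in intact HL-60 cells treated with BRD-3811 (0, 0.04, 0.29, 2, 10 uM) for 90 min at 37 C, then heated 3 min at one of 12 temperatures (42-63.9 C). Soluble protein was quantified by TMT10 MS. The value is the DLPTP call of the paper: dose-dependent thermal stabilisation over all temperatures at 10% FDR (F-test of a dose-response against a flat model); one experiment, one call per tested protein.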

Row | Target | dose-dependent thermal stabilisation call
1 | GNB4 (UniProt Q9HAV0) | inactive: 0
2 | FARSB (UniProt Q9NSD9) | inactive: 0
3 | GATC (UniProt O43716) | inactive: 0
4 | GDF1 (UniProt P27539) | inactive: 0
5 | GALM (UniProt Q96C23) | inactive: 0
6 | FBXO4 (UniProt Q9UKT5) | inactive: 0
7 | FNBP4 (UniProt Q8N3X1) | inactive: 0
8 | GMNN (UniProt O75496) | inactive: 0
9 | FAM49B (UniProt Q9NUQ9) | inactive: 0
10 | GFER (UniProt P55789) | inactive: 0
11 | G3BP1 (UniProt Q13283) | inactive: 0
12 | FKBP5 (UniProt Q13451) | inactive: 0
13 | GMPR2 (UniProt Q9P2T1) | inactive: 0
14 | FEM1B (UniProt Q9UK73) | inactive: 0
15 | FDXR (UniProt P22570) | inactive: 0
16 | FKBP2 (UniProt P26885) | inactive: 0
17 | FTSJ3 (UniProt Q8IY81) | inactive: 0
18 | FXR1 (UniProt P51114) | inactive: 0
19 | FIG4 (UniProt Q92562) | inactive: 0
20 | GLE1 (UniProt Q53GS7) | inactive: 0

Row | Target | dose-dependent thermal stabilisation call
21 | GNAI3 (UniProt P08754) | inactive: 0
22 | FANCB (UniProt Q8NB91) | inactive: 0
23 | FOSL2 (UniProt P15408) | inactive: 0
24 | FYN (UniProt P06241) | inactive: 0
25 | FYB (UniProt O15117) | inactive: 0
26 | GART (UniProt P22102) | inactive: 0
27 | FAR1 (UniProt Q8WVX9) | inactive: 0
28 | GNA13 (UniProt Q14344) | inactive: 0
29 | GARNL1 (UniProt Q6GYQ0) | inactive: 0
30 | FBXO9 (UniProt Q9UK97) | inactive: 0
31 | FBXO5 (UniProt Q9UKT4) | inactive: 0
32 | GATSL2 (UniProt A6NHX0) | inactive: 0
33 | FBXO3 (UniProt Q9UK99) | inactive: 0
34 | GINS3 (UniProt Q9BRX5) | inactive: 0
35 | GAN (UniProt Q9H2C0) | inactive: 0
36 | FASTKD1 (UniProt Q53R41) | inactive: 0
37 | GAK (UniProt O14976) | inactive: 0
38 | FIP1L1 (UniProt Q6UN15) | inactive: 0
39 | FLJ43093 | inactive: 0
40 | GMPPB (UniProt Q9Y5P6) | inactive: 0

Quoted from the listing.
dose-dependent thermal stabilisation call with FAM49B (UniProt Q9NUQ9) reads inactive: 0
dose-dependent thermal stabilisation call with GINS3 (UniProt Q9BRX5) reads inactive: 0
